# Measurements from the supplement of paper PMC10849652.
# Sequences of proteins named here, by UniProt entry; tags and fusion partners are left off. A change or cut given only in a name is not applied to a line headed by its entry.
# UniProt Q8NI36: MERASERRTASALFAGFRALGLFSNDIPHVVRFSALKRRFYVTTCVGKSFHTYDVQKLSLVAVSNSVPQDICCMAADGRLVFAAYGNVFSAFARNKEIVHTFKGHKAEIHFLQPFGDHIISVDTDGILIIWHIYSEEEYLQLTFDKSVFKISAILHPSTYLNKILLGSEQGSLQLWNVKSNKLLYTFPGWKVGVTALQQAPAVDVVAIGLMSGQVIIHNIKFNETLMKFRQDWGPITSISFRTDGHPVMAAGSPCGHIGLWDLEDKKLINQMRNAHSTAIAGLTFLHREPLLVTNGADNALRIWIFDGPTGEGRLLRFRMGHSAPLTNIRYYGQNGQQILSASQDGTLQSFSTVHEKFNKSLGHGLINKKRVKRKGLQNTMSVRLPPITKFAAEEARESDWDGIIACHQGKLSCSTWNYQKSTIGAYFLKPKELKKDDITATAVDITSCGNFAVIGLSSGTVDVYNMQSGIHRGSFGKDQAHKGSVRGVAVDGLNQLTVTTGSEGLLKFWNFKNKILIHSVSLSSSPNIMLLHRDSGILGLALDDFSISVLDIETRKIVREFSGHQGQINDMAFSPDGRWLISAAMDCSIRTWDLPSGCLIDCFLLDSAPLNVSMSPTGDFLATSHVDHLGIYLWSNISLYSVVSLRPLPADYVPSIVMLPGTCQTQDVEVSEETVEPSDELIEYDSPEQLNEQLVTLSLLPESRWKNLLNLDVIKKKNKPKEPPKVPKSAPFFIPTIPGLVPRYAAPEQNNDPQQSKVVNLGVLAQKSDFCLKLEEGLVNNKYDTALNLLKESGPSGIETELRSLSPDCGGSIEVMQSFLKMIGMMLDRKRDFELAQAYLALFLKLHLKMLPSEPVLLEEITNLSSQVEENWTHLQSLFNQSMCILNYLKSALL
# UniProt Q5JSH3: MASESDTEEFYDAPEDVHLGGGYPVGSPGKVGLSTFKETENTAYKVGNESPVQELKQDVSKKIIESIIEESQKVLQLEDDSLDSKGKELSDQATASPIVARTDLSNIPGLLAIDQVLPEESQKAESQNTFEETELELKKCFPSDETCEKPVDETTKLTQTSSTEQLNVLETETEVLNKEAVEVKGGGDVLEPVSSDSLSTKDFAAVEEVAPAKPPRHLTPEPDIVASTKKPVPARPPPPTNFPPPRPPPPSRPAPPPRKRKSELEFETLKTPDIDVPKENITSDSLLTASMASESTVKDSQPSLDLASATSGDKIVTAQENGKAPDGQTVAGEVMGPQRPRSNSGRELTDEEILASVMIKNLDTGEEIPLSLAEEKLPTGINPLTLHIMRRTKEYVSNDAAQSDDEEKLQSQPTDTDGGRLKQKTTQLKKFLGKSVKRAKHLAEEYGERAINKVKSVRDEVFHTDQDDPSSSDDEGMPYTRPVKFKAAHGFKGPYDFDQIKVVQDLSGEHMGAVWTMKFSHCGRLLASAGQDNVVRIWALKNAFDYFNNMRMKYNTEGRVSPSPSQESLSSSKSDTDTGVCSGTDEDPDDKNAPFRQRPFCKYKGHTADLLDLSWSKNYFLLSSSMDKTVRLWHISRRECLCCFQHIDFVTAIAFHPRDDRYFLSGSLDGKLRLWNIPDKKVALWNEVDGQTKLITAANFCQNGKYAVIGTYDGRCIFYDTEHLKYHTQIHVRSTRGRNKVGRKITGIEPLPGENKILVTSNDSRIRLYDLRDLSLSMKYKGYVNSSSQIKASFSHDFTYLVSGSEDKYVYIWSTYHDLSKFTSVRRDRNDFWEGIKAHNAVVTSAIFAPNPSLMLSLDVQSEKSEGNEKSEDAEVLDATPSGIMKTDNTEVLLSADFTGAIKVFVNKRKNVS
# UniProt Q9H1Z4: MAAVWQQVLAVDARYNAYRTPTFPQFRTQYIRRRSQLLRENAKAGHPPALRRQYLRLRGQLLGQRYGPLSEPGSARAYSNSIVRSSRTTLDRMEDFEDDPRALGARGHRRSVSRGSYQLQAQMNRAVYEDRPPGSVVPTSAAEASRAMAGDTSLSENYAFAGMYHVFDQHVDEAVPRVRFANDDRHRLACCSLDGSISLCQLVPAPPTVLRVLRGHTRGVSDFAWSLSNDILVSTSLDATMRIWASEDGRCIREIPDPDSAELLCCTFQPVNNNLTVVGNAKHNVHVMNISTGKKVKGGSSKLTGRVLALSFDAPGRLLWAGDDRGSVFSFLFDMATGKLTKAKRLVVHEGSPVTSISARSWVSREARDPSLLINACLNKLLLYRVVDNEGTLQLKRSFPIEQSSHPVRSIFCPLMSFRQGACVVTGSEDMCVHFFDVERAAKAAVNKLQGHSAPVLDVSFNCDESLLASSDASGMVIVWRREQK
# UniProt Q6RFH5: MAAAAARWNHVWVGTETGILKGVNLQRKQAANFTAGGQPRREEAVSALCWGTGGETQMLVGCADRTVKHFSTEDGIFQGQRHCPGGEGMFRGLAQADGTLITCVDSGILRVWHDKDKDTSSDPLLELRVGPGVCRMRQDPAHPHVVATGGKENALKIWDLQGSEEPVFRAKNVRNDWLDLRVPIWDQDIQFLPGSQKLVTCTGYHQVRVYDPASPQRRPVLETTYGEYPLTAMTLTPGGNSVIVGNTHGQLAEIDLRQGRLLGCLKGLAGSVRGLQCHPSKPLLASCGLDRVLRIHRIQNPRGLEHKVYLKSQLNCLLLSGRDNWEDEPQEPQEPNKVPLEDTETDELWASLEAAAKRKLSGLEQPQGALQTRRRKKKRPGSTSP
# UniProt Q9BQA1, whole entry, looked up: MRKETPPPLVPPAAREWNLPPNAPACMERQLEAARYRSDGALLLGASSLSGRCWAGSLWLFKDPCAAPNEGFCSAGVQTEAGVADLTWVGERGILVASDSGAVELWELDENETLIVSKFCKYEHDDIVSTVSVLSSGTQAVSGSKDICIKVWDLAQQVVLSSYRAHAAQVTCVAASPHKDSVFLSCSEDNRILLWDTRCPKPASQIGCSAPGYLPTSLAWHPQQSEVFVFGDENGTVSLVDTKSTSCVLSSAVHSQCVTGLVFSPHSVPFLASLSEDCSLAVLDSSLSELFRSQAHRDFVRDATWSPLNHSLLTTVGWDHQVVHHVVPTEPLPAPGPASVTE
# UniProt Q96FK6: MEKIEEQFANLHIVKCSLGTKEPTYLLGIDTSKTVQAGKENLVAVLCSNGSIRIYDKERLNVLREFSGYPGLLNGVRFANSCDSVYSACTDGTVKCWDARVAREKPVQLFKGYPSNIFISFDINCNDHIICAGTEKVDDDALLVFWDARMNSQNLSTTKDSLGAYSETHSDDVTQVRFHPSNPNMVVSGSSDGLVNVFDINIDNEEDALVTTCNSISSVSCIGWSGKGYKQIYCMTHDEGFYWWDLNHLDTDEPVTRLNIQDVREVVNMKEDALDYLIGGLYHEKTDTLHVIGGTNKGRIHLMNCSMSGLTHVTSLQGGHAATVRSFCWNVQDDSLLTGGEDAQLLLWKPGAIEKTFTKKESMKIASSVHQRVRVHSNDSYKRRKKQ
# UniProt Q9Y277: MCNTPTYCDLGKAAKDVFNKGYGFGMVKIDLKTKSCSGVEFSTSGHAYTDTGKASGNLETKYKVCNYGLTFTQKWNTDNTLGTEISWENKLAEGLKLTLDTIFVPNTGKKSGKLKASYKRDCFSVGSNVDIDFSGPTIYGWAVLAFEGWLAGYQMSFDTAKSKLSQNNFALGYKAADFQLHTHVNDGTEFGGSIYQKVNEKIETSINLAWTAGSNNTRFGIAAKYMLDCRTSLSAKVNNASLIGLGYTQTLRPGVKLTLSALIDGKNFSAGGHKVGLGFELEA
# UniProt A6NGB9: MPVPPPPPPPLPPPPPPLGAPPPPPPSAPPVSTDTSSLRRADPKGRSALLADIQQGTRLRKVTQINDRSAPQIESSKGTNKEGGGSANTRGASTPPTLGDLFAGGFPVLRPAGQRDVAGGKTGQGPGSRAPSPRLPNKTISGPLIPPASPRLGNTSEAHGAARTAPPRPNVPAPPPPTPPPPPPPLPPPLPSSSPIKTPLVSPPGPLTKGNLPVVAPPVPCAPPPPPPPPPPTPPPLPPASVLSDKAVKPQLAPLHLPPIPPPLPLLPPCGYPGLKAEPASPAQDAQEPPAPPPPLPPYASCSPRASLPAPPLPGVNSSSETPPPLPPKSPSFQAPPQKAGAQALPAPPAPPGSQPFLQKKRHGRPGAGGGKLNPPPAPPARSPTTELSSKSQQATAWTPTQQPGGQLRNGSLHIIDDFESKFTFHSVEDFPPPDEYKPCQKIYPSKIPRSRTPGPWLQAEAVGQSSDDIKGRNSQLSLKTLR
# UniProt Q9BUR4: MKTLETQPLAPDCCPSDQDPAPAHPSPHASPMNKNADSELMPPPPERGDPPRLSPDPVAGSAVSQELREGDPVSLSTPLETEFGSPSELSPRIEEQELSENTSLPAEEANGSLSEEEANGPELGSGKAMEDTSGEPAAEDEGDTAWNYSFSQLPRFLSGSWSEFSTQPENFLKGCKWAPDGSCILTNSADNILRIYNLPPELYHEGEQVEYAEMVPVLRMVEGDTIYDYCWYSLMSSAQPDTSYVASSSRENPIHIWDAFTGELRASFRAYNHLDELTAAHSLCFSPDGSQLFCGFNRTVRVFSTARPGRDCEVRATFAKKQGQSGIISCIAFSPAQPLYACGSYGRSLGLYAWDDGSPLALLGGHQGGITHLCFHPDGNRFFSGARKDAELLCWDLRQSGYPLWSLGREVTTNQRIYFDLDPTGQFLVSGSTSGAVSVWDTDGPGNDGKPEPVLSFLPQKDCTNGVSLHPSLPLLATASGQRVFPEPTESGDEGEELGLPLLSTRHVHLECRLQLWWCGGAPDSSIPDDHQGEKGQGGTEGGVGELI
# UniProt Q9Y484: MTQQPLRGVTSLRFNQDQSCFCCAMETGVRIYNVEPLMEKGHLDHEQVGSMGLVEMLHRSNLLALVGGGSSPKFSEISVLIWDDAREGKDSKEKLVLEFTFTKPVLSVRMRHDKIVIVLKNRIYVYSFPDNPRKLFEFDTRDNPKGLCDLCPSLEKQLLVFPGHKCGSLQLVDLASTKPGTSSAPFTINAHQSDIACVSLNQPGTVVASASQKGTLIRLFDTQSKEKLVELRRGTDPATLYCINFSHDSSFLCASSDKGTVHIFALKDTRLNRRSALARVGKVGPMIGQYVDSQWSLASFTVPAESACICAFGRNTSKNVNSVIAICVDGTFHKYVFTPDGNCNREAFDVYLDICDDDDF
# UniProt O75351, whole entry, looked up: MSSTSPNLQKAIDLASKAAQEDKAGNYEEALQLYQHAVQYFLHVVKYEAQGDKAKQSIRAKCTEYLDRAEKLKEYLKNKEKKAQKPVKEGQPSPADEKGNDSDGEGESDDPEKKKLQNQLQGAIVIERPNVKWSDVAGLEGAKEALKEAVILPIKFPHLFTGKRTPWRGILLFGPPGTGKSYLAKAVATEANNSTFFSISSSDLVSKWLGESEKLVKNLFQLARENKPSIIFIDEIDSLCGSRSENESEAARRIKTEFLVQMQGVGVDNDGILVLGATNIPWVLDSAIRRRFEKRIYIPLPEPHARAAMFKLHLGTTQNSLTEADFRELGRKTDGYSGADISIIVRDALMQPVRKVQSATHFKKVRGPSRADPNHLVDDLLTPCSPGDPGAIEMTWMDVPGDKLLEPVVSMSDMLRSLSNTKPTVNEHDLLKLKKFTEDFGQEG
# UniProt Q14119: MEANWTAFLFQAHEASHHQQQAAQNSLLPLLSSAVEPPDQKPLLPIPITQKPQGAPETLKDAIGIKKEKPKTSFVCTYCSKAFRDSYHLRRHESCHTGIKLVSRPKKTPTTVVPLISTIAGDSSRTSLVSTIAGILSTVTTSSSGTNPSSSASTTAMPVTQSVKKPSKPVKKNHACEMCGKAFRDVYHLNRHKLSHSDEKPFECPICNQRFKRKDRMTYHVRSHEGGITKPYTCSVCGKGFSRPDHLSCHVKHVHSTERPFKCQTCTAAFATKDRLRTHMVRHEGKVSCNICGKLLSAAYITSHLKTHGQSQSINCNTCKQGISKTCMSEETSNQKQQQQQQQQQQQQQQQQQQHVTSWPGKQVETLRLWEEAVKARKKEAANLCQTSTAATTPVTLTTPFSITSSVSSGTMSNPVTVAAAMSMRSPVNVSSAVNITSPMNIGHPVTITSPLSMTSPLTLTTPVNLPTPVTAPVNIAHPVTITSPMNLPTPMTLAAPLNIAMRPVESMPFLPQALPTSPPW
# UniProt Q5MNZ9: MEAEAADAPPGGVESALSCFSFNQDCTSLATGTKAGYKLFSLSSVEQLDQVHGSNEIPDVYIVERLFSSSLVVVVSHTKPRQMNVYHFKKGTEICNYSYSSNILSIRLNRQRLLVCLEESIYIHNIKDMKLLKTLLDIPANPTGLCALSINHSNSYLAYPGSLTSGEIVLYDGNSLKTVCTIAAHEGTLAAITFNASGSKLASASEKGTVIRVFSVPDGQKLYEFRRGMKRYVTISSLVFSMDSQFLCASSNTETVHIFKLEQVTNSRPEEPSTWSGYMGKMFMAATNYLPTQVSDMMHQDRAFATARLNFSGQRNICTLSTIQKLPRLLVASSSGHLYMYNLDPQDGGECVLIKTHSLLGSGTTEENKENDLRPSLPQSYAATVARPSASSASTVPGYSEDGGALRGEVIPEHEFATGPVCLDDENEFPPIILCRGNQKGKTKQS
# Some of the results follow.
# Compound: CS(=O)(=O)c1ccc(-c2cnc(N)c(C(=O)Nc3ccccc3)n2)cc1
# Test: log2 fold change, soluble protein after heating vs DMSO (PISA); higher = thermal stabilisation; K562 cells, 10 uM, 30 min; active = over 0.2 and 3.5 SD of the protein, either way, in both replicates (recomputed)
# Summary of the method: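 K562 cells at 2×10^6 cells/mL were treated with 10 μM compound for 30 min. Aliquots were heated for 3 min across 48°C-58°C, pooled, and extracted in PBS with 0.5% NP-40 at 4°C; soluble protein was the supernatant after 21,000xg for 90 min. Soluble protein was quantified by TMTpro 16plex LC-MS/MS with channel sums equalised, and reported as log2 fold change in thermal stability against DMSO controls, with values from duplicates.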
row,Target,log2 fold change
1,WDR61 (UniProt Q9GZS3),inactive: 0.043
2,WDR36 (UniProt Q8NI36),inactive: 0.033
3,WDR44 (UniProt Q5JSH3),inactive: -0.005
4,WDR13 (UniProt Q9H1Z4),inactive: 0.02
5,WASL (UniProt O00401),inactive: 0.088
6,WDR74 (UniProt Q6RFH5),inactive: -0.037
7,WASHC2A (UniProt Q641Q2),inactive: 0.025
8,WARS (UniProt P23381),inactive: 0.011
9,WASHC4 (UniProt Q2M389),inactive: 0.018
10,WDFY1 (UniProt Q8IWB7),inactive: 0.022
11,VPS13C (UniProt Q709C8),inactive: 0.034
12,WBP11 (UniProt Q9Y2W2),inactive: -0.032
13,WDR45B (UniProt Q5MNZ6),inactive: -0.04
14,VPS35 (UniProt Q96QK1),inactive: 0.018
15,WDR77 (UniProt Q9BQA1),inactive: -0.022
16,WDR5 (UniProt P61964),inactive: -0.082
17,WASF2 (UniProt Q9Y6W5),inactive: 0.023

# Single values from above:
# For log2 fold change, WDR36 (UniProt Q8NI36) shows inactive: 0.033
# For log2 fold change, WASL (UniProt O00401) shows inactive: 0.088

# The list continues:

row,Target,log2 fold change
1,VRK3 (UniProt Q8IV63),inactive: -0.07
2,WDR89 (UniProt Q96FK6),inactive: 0.009
3,WRAP73 (UniProt Q9P2S5),inactive: -0.071
4,VDAC3 (UniProt Q9Y277),inactive: 0.009
5,WDR6 (UniProt Q9NNW5),inactive: 0
6,WDR20 isoform 7 (UniProt Q8TBZ3),inactive: 0.058
7,WIPF3 (UniProt A6NGB9),inactive: 0.045
8,WRAP53 (UniProt Q9BUR4),inactive: 0.012
9,WDR45 (UniProt Q9Y484),inactive: 0.012
10,VTN (UniProt P04004),inactive: -0.134
11,VPS4B (UniProt O75351),inactive: 0.023
12,VWA5A (UniProt O00534),inactive: 0.038
13,WIZ (UniProt O95785),inactive: 0.032
14,VEZF1 (UniProt Q14119),inactive: -0.068
15,WDR34 (UniProt Q96EX3),inactive: 0.019
16,WDR70 (UniProt Q9NW82),inactive: 0.015
17,WIPI1 (UniProt Q5MNZ9),inactive: -0.008
